The results in this text go back to publication PMC7930037.

In one assay the target is GST-AMPKα. The assay is described as follows: pull-down; GST fusion from E. coli extract on glutathione-Sepharose 4B beads (2 h, 4 °C), incubated with purified Flag-tagged protein; eluted with 20 mM reduced glutathione; anti-Flag blot; purified GST as control; both purified.
For the next assay, the target named is GST-AMPKβ1. The description is as above.

Results are given in words; binding and its absence hold for the method and conditions named. In cells and extracts the contact can be indirect. For some assays here: Binding calls can cover weak binding; strength is not graded here. Tags and fused reporters may be left off the sequences shown.

B1: Flag-tagged WBP2 (protein, UniProt Q969T9 1-261)
chain: MALNKNHSEGGGVIVNNTESILMSYDHVELTFNDMKNVPEAFKGTKKGTVYLTPYRVIFLSKGKDAMQSFMMPFYLMKDCEIKQPVFGANYIKGTVKAEAGGGWEGSASYKLTFTAGGAIEFGQRMLQVASQASRGEVPSGAYGYSYMPSGAYVYPPPVANGMYPCPPGYPYPPPPPEFYPGPPMMDGAMGYVQPPPPPYPGPMEPPVSGPDVPSTPAAEAKAAEAAASAYYNPGNPHNVYMPTSQPPPPPYYPPEDKKTQ
On to B1, for which the binding entry with GST-AMPKα is “no binding”; with GST-AMPKβ1, “binds”.
